## Percent effect of library compounds

Each number is a percent effect as filed. The controls that fix the scale are not given in the record; negative values are as filed. Compounds were drawn at random from those tested, without regard to their results.

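Assay of Toxoplasma gondii numbers, read through their beta-galactosidase reporter with a colour substrate. Concentration: 50 µM. The record gives no direction; the compounds picked for IC50 retests had high values, so higher reads as fewer parasites. Size under these conditions: about 18,000 compounds, about 170 of them at 50% or above in at least one test.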

SMILES,percent effect
COC(=O)C1CCCN(C(=O)Nc2ccccc2)C1 (centres undefined),2.007%
Cn1nc(CC2CC2)cc1N,-6.696%
NCc1ccc(CN2CCCCC2)cc1,0.9541%
CNCC(=O)NCCCc1nc2c(C)c(C)ccc2[nH]1,4.072%
NCC(CO)Cc1ccccc1Cl (centres undefined),6.864%
CC1CN(C)CCN1Cc1ccc(S(=O)(=O)N(C)C)o1 (centres undefined),-23.73%
CCc1c[nH]ccc1=N,-2.53%
NC(=O)NCC(=O)NCc1ccccc1-n1ccnc1,-13.26%
CCC(C(=O)Nc1ccc(OC)cc1)N(C)C (centres undefined),-6.499%
O=c1oc(-c2ccccc2)nn1CN1CCOCC1,-3.488%
CCN(Cc1cnc(N)nc1)CC1CCOCC1,2.057%
COC(=O)C(NC(=O)c1ccoc1)c1ccccc1 (centres undefined),0.08099%
CN(C)CCNC(=O)Cn1cc(NCC(C)(C)C)cn1,1.66%
CNC(=O)c1ccc(C)c(NC(=O)c2ccco2)c1,21.74%
CCOC(C)C(=O)Nc1ccc2c(c1)NC(=O)CS2 (centres undefined),-13.77%
CCC(=O)N1CCN(S(=O)(=O)c2ccc(C)s2)CC1,-1.672%
COc1cccc(Nc2nccc(=O)[nH]2)c1,2.871%
CCCNC(=O)NCCc1noc(-c2cccnc2)n1,47.82%
CS(=O)(=O)N1CCN(c2cccc(O)c2)CC1,-3.41%
Cc1ccccc1OCC(O)CN1CCC[C@@H]1CO (some centres undefined),12.14%
CCNC(C)CS(=O)(=O)CC (centres undefined),6.192%
NCc1cc2c(cc1Br)OCO2,28.97%
CCc1nccn1CCN1CCCC(NC(C)=O)C1 (centres undefined),3.346%
N#CCS(=O)(=O)N1CCCCC1,3.505%
COC(=O)c1cccc(COC(=O)CCNC(C)=O)c1,-1.212%
CCNc1ncc(C(=O)NCc2ccncc2)cn1,-7.521%
Cn1c(Sc2ccc(C#N)cn2)nnc1C1CC1,-0.2412%
CC(=O)c1c[nH]c(C(=O)NCCCNS(C)(=O)=O)c1,-1.872%
CCN(CC)CCCN1CCOC2(CCOC2)C1 (centres undefined),2.047%
Nc1cc(CN2CCOC(c3nccs3)C2)ccn1 (centres undefined),-3.626%
O=C1NCCc2c(F)cc(Br)cc21,-8.606%
CC(NC(=O)NCc1ccnn1C)c1ccccc1F (centres undefined),-14.26%
COCCN(CCS(C)(=O)=O)c1nc2ccccc2[nH]1,-8.214%

Some entries from above, unchanged:

CCc1nccn1CCN1CCCC(NC(C)=O)C1 (centres undefined) gave 3.346%.
CCN(Cc1cnc(N)nc1)CC1CCOCC1 gave 2.057%.

Measurements from “University of Dundee, Small-Polar-MMV Screening Library” (2021), ChEMBL document CHEMBL3988442.